In patent US20230337672A1, “METHOD OF C[…] RUST FUNGUS HAVING RESISTANCE TO QoI FUNGICIDE” (SUMITOMO CHEMICAL COMPANY, LIMITED, priority 2020, published 2023):
Some results were stated once for a whole list of compounds, not compound by compound.

What follows are molecules tested on soybean rust fungus (Phakopsora pachyrhizi) having an amino acid substitution of F129L in a mitochondrial cytochrome b protein (assay: Leaf disc test: preventive spray, then inoculation with soybean rust fungus spores, lesion area investigated). Conditions: Test Example 1; soybean (Kurosengoku) leaf disc; prescribed concentration 50 ppm; 10 µL spray per disc; inoculation after 1 day.
Format: in vivo
Protocol: A true leaf of a soybean (cultivar: Kurosengoku) was cut into a diameter of 1 cm to prepare each leaf disc. To each well of a 24 well microplate was dispensed 1 mL of an agar medium (agar concentration 1.2%), and then one of said leaf disc was placed on each well. To a mixture of Sorpol (registered trademark) 1200KX (0.5 µL), DMSO (4.5 µL), and xylene (5 µL) was added a DMSO solution (20 µL) comprising a test compound (10000 ppm), and the resulting mixture was mixed. The resulting mixture was diluted with ion exchange water to prepare a spray solution comprising a prescribed concentration of the test compound. Said spray solution was sprayed into each leaf disc at a ratio of 10 µL per leaf disc. After 1 day, an aqueous suspension of spores of soybean rust fungus (Phakopsora pachyrhizi) having an amino acid substitution of F129L in a mitochondrial cytochrome b protein (1.0 × 10^5/mL) was inoculated by spraying on each leaf disc. After the inoculation, the microplate was placed into an artificial climate chamber (Lighting: 6 hours, Lights-out: 18 hours, Temperature: 23° C., Humidity: 60%). After 1 day, the leaf discs were air-dried until water droplets on the surfaces of the leaf discs disappeared, and the microplate was placed into the artificial climate chamber again for 12 days. Then, lesion area of soybean rust was investigated. As a result, when the prescribed concentration was 50 ppm, each lesion area of leaf disc treated with any one of the Present compound 2, 6, 8, 25, 29, or 35 as the test compound was 30% or less relative to the lesion area of non-treated leaf disc.
Here, the term of “non-treated” means that a spray solution comprising a test compound was not sprayed into a leaf disc.
Each test is carried out according to the Test Example 1 by using any one of the Present compound S as the test compound with a prescribed concentration of 12.5 ppm. As a result, control effects on soybean rust can be confirmed in the leaf discs treated with test compounds.
Each test is carried out according to the Test Example 1 by using any one of the Present compound S as the test compound with a prescribed concentration of 3.1 ppm. As a result, control effects on soybean rust can be confirmed in the leaf discs treated with test compounds.
Each test was carried out according to the Test Example 1 by using the Present compound 2, 6, 8, 29 or 35, or azoxystrobin, dimoxystrobin, or metominostrobin as the test compound with a prescribed concentration of 50 ppm.

| Compound | lesion area of leaf disc relative to the lesion area of non-treated leaf disc [%] |
| --- | --- |
| CO/C=C(/C(=O)OC)c1cccc2oc(-c3ccccc3)nc12 [Present compound 2] | ≤ 30 |
| CO/C=C(/C(=O)OC)c1cccc2sc(-c3ccccc3)nc12 [Present compound 6] | ≤ 30 |
| CO/C=C(/C(=O)OC)c1cccc2ccc(-c3ccccc3)cc12 [Present compound 8] | ≤ 30 |
| Cn1nc(Cl)n(-c2cccc3oc(Cc4ccccc4)nc23)c1=O [Present compound 29] | ≤ 30 |
| Cn1nc(Cl)n(-c2cccc3oc(COc4ccccc4)nc23)c1=O [Present compound 35] | ≤ 30 |
